Test system: TGEV
Experiment: Quantitation of TGEV-induced cell death in ST cells by real-time automated microscopy (Cytotox)
Format: cell-based, transmissible gastroenteritis virus (TGEV)
Conditions: dose-response fit of TGEV-induced cell death

SMILES	Hill slope n
C[C@@H]1O[C@@H](Cc2ccccc2)CC1[Si](c1ccccc1)(c1ccccc1)c1ccccc1 (stereo partly drawn) [SPL-0]	2.87
C[C@H]1OC[C@@H](c2ccccc2)[C@H]1[Si](c1ccccc1)(c1ccccc1)c1ccccc1 [SPL-4]	2.52
CC(C)C[C@H]1C[C@@H]([Si](c2ccccc2)(c2ccccc2)c2ccccc2)[C@H](CCCCl)O1 [SPL-6]	2.13

Source: patent EP4166560A1, “TRI-SUBSTITUTED TETRAHYDROFURANS AND USE THEREOF” (Consejo Superior de Investigaciones Cientificas, priority 2021, dated 2023)
